Data taken from publication doi:10.1101/715409 (bioRxiv, 2019).
These are yes or no findings as the source states them, for the method shown. In cells and extracts the contact can be indirect. Some binding calls cover weakened binding; strength is not graded here. For some assays here: Where a sequence is shown, tags or fusion partners need not be part of it.

B1: Nub-Boi1 (protein, UniProt P38041 1-980)
chain: MSLEGNTLGKGAKSFPLYIAVNQYSKRMEDELNMKPGDKIKVITDDGEYNDGWYYGRNLRTKEEGLYPAVFTKRIAIEKPENLHKSPTQESGNSGVKYGNLNDSASNIGKVSSHQQENRYTSLKSTMSDIDKALEELRSGSVEQEVSKSPTRVPEVSTPQLQDEQTLIQEKTRNEENTTHDSLFSSTADLNLSSESLKNISKSNISTKSLEPSSESVRQLDLKMAKSWSPEEVTDYFSLVGFDQSTCNKFKEHQVSGKILLELELEHLKELEINSFGIRFQIFKEIRNIKSAIDSSSNKLDADYSTFAFENQAAQLMPAATVNRDEIQQQISSKCNKLSSESSDRKSSSVTTELQRPSSVVVNPNFKLHDPAEQILDMTEVPNLFADKDIFESPGRAPKPPSYPSPVQPPQSPSFNNRYTNNNARFPPQTTYPPKNKNPTVYSNGLIPNSSTSSDNSTGKFKFPAMNGHDSNSRKTTLTSATIPSINTVNTDESLPAISNISSNATSHHPNRNSVVYNNHKRTESGSSFVDLFNRISMLSPVKSSFDEEETKQPSKASRAVFDSARRKSSYGHSRDASLSEMKKHRRNSSILSFFSSKSQSNPTSPTKQTFTIDPAKMTSHSRSQSNSYSHARSQSYSHSRKHSLVTSPLKTSLSPINSKSNIALAHSETPTSSNNKEAVSQPSEGKHKHKHKHKSKHKHKNSSSKDGSSEEKSKKKLFSSTKESFVGSKEFKRSPSELTQKSTKSILPRSNAKKQQTSAFTEGIRSITAKESMQTADCSGWMSKKGTGAMGTWKQRFFTLHGTRLSYFTNTNDEKERGLIDITAHRVLPASDDDRLISLYAASLGKGKYCFKLVPPQPGSKKGLTFTEPRVHYFAVENKSEMKAWLSAIIKATIDIDTSVPVISSYATPTIPLSKAQTLLEEARLQTQLRDAEEEEGRDQFGWDDTQNKRNSNYPIEQDQFETSDYLESSAFEYPGGRL
B2: 6xHis Boi1_(1-300) (domain or fragment, UniProt P38041 1-300)
chain: MSLEGNTLGKGAKSFPLYIAVNQYSKRMEDELNMKPGDKIKVITDDGEYNDGWYYGRNLRTKEEGLYPAVFTKRIAIEKPENLHKSPTQESGNSGVKYGNLNDSASNIGKVSSHQQENRYTSLKSTMSDIDKALEELRSGSVEQEVSKSPTRVPEVSTPQLQDEQTLIQEKTRNEENTTHDSLFSSTADLNLSSESLKNISKSNISTKSLEPSSESVRQLDLKMAKSWSPEEVTDYFSLVGFDQSTCNKFKEHQVSGKILLELELEHLKELEINSFGIRFQIFKEIRNIKSAIDSSSNKL
B3: Nub-Bud6 (protein, UniProt P41697 1-788)
chain: MKMAVDDPTYGTPKIKRTASSSSSIETTVTKLLMSTKHLLQVLTQWSKGTTSGRLVSDAYVQLGNDFKVVSKFFMHAKVDMSDVGDVPMALRRVLEVTLREPPSDETLNKHLPKIREIIVTLLDKLKVKQAILKNMQQEHRISVKSHHQQNPSFTSNLSLGSEGTREGTPLSSRKSSIVRDQRQSDSVENSYGEKVNSTSTGTPSAQSAEATLTKPRTNIKQNLKSNNAPNASDDDDALSQLKKGTNLQRRASKRYSAYHMAKLTNQSTTEAAAAAGLMTTPSPSMLHLEETVRKSKLYGNNNNDDDRNINSAENKGKSIDDVSKASPLAKTPLPIENVRASPRRLSSVVTTSPDKAMNGTCPVFLRIGDKTKKCHVQLPTTKNALRLLFIERFAYSPGANSFPDIYIMDPQYGVFYELEELNLLDIKEGFVIELKLEENPNNTIKEFIDTVKMEISNSQNDIIRHLKEMSFGSAISGKQTEVLPQPGLEANKHDLVGQNKKDDDKTIKDIQYELGKIKQVHNINRSNINETIFNILRKVDNFKSLSFSAKNSSNRMYMEKSQTELGDLSDTLLSKVDDLQDVIEIMRKDVAERRSQPAKKKLETVSKDLENAQADVLKLQEFIDTEKPHWKKTWEAELDKVCEEQQFLTLQEELILDLKEDLGKALETFDLIKLCCEEQEKNPSRSKSNPILPIMRPGTFNQVREQVMVAVQSLNPDHDSRVEAIDKAEKMWEMERKLKASNEFDDELENFVGNSNLKKSGGFEEVERIRKQKDEANLRAYFGPGFT
B4: Nub-Bem1 (protein, UniProt P29366 1-551)
chain: MLKNFKLSKRDSNGSKGRITSADISTPSHDNGSVIKHIKTVPVRYLSSSSTPVKSQRDSSPKNRHNSKDITSPEKVIKAKYSYQAQTSKELSFMEGEFFYVSGDEKDWYKASNPSTGKEGVVPKTYFEVFDRTKPSSVNGSNSSSRKVTNDSLNMGSLYAIVLYDFKAEKADELTTYVGENLFICAHHNCEWFIAKPIGRLGGPGLVPVGFVSIIDIATGYATGNDVIEDIKSVNLPTVQEWKSNIARYKASNISLGSVEQQQQQSITKPQNKSAKLVDGELLVKASVESFGLEDEKYWFLVCCELSNGKTRQLKRYYQDFYDLQVQLLDAFPAEAGKLRDAGGQWSKRIMPYIPGPVPYVTNSITKKRKEDLNIYVADLVNLPDYISRSEMVHSLFVVLNNGFDREFERDENQNNIKTLQENDTATFATASQTSNFASTNQDNTLTGEDLKLNKKLSDLSLSGSKQAPAQSTSGLKTTKIKFYYKDDIFALMLKGDTTYKELRSKIAPRIDTDNFKLQTKLFDGSGEEIKTDSQVSNIIQAKLKISVHDI

Legend:
[1] = target: Bni1CRU (Saccharomyces cerevisiae) (UniProt P41832); assay: split reporter
[2] = target: T1, Bud6CRU (Saccharomyces cerevisiae) (UniProt P41697); assay: split reporter
T1 sequence: B3 chain

[3] = target: T2, CRU fusion to the N-terminal 854 residues of Bni1 (Saccharomyces cerevisiae) (UniProt P41832); assay: split reporter
T2 sequence: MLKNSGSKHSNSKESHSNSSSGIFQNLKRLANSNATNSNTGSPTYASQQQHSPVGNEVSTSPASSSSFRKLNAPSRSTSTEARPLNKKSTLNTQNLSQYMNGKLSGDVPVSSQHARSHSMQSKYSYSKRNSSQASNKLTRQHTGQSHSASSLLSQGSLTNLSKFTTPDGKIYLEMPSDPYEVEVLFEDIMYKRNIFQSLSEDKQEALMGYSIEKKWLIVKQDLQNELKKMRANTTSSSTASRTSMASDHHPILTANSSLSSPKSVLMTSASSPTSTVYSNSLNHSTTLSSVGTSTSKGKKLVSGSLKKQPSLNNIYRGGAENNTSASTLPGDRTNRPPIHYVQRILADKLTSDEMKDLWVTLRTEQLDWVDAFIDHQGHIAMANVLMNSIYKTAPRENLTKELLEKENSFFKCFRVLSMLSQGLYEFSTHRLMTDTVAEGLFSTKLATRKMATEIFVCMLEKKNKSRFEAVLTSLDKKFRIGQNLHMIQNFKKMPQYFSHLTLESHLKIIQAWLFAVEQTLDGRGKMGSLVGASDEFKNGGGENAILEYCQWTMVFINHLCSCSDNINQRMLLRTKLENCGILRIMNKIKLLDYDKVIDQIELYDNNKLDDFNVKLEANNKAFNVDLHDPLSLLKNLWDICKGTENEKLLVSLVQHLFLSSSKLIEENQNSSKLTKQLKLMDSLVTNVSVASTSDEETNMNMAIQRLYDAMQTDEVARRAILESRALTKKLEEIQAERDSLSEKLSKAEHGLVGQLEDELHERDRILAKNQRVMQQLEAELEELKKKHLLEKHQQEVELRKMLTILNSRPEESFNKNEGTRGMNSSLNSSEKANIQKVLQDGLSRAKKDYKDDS

[4] = target: T3, GST fusion to Bni1 (1-854) (Saccharomyces cerevisiae) (UniProt P41832); assay: pull-down
T3 sequence: T2 sequence

[5] = target: T4, Boi1_(Δ86-178)CRU (Saccharomyces cerevisiae) (UniProt P38041); assay: split reporter
T4 sequence: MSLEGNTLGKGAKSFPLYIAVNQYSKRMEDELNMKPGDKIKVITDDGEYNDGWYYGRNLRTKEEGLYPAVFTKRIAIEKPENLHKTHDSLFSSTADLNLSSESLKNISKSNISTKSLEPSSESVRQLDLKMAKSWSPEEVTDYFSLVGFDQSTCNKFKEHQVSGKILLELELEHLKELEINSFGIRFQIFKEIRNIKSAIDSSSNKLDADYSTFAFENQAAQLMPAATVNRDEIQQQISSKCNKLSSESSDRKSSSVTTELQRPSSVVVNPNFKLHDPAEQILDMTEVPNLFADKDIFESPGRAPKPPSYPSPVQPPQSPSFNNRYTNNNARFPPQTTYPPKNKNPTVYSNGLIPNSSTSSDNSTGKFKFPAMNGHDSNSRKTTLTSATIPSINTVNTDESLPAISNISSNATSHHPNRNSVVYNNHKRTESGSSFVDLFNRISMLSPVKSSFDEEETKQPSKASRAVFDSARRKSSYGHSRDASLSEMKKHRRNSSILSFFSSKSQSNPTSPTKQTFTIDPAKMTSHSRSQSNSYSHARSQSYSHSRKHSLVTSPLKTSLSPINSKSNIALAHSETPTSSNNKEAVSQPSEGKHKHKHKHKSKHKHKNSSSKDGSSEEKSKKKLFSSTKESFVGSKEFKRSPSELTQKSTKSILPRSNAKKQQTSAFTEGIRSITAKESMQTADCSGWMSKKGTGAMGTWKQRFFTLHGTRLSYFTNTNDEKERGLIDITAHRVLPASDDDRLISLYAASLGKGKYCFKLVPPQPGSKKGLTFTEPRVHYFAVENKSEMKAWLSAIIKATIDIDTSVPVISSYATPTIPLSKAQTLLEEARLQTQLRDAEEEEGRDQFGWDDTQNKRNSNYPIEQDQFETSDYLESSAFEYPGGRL

[6] = target: T5, Boi1CRU (Saccharomyces cerevisiae) (UniProt P38041); assay: split reporter
T5 sequence: B1 chain

Row | Binder | binding [5] | binding [6] | other results
1 | B1 |  |  | binding [1]: binds; binding [2]: binds; binding [3]: binds
2 | B2 |  |  | binding [4]: binds
3 | B3 | no binding | binds | 
4 | B4 | binds | binds | 
